According to PMC7862700:
The list shows a part of the results. The exact form of the protein is not confirmed.

What follows are sequences tested against T1, ETV4 (UniProt P43268) (assay: DAPPL (digital affinity profiling via proximity ligation, sequencing)). Details: 10 mM Tris-HCl pH 7.5, 50 mM NaCl, 1 mM DTT, 4% glycerol, room temperature, 30 min; GST-TFs on glutathione beads, 16-mer random dsDNA library, 0.1% …; high values mean tight binding; double strand, one strand shown; scale: fold enrichment (6-mer frequency, TF over GST control).
T1 sequence: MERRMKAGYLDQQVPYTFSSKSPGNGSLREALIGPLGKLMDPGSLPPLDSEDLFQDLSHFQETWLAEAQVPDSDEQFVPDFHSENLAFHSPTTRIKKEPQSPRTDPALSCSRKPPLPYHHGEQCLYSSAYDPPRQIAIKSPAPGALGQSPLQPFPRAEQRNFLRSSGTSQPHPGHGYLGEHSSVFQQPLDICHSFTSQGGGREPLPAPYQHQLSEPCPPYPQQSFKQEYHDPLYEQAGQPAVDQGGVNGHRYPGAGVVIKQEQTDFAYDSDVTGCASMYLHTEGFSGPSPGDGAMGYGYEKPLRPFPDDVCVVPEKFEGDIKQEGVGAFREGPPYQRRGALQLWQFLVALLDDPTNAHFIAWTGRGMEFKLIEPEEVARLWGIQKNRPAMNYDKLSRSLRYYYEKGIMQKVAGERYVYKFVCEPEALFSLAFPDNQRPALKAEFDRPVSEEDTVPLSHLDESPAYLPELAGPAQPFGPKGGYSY

| Sequence | binding signal |
| --- | --- |
| ACCACT | 1.31 |
| TGCTAA | 1.22 |
| ATGAAT | 1.1 |
| CCTCGT | 1.26 |
| CAAATA | 1.07 |
| TCACAT | 1.28 |
| ACTAAA | 1.22 |
| CCATTC | 1.12 |
| GCCTCA | 1.3 |
| CGTTCA | 1.2 |
| TGCGTA | 1.19 |
| CTTGAT | 1.42 |
| TCCCTT | 1.58 |
| TGGCAG | 1.14 |
| TTAACA | 1.13 |
| ATGATC | 1.23 |
| ACGGCC | 1.09 |
| CCGGCA | 1.44 |
| TTTGGC | 1.36 |
| ACTCCC | 1.38 |

Already shown: an excerpt of the list.

| Sequence | binding signal |
| --- | --- |
| TTTGGC | 1.36 |
| ACTCCC | 1.38 |

Following part

| Sequence | binding signal |
| --- | --- |
| TACGAT | 1.05 |
| TATCGT | 1.15 |
| ATGACT | 1.52 |
| AATAGA | 1.09 |
| TCATTT | 1.3 |
| ATTCGT | 1.2 |
| GAAGCA | 1.41 |
| ACAGAT | 1.02 |
| ACACGA | 1.1 |
| TATACT | 1.35 |
| GCTGTA | 1.07 |
| CGACTC | 1.42 |
| ATCACC | 1.14 |
| TTGTCC | 1.39 |
| CGCCCG | 1.13 |
| TGCTTC | 2.34 |
| TCCGGA | 2.61 |
| CTTAGG | 1.11 |
| ACTCTC | 1.59 |
